Source: publication PMC10882002, “Design of target specific peptide inhibitors using generative deep learning and molecular dynamics simulations” (Nature Communications, 2024)

Sequences of proteins named here, by UniProt entry; tags and fusion partners are left off. Residues count along the entry.
UniProt Q9Y6K9, 1-196, species assumed: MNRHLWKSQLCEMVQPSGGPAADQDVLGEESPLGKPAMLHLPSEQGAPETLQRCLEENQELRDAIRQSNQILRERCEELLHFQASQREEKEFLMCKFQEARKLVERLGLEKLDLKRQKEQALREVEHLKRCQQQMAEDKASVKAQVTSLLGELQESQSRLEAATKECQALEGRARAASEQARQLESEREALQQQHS

Target: T1, NEMO (Homo sapiens, UniProt Q9Y6K9)
T1 construct: made in house; host or cells: E. coli BL21 (DE3)
Experiment: Competitive homogeneous time-resolved fluorescence (HTRF) assay for NEMO binding (GST-NEMO / biotin-IKKβKK/RR)
Experimental: All experiments were performed in triplicates (n = 3).
Source data are provided as a Source Data file. […]

`CC(C)C[C@H](NC(=O)[C@H](C)NC(=O)[C@@H](NC(=O)[C@H](Cc1c[nH]cn1)NC(=O)[C@H](CO)NC(=O)[C@H](CO)NC(=O)[C@H](Cc1c[nH]cn1)NC(=O)[C@H](CO)NC(=O)[C@@H](N)Cc1c[nH]c2ccccc12)[C@@H](C)O)C(=O)N[C@@H](CC(=O)O)C(=O)N[C@@H](Cc1c[nH]c2ccccc12)C(=O)N[C@@H](CO)C(=O)N[C@@H](Cc1c[nH]c2ccccc12)C(=O)N[C@@H](CC(C)C)C(=O)N[C@@H](CCC(N)=O)C(=O)N[C@H](C(=O)N[C@@H](CCC(=O)O)C(N)=O)[C@@H](C)O` [NBD+2] was tested, and the IC50 was 50 µM.
